The list shows a part of the results. These are further read-outs of the screen, such as a control signal, another cell line or another target. No call is given for them. The list favours compounds with an active or inconclusive main result. Potencies come from curve fits of mixed quality, noted in brackets.
Test: qHTS Assay for Lipid Storage Modulators in Drosophila S3 Cells;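 on cell number change: cells counted by Cell Tracker Red CMTPX staining in the red channel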
Conditions: BODIPY lipid droplet fluorescence, 18-24 h; for cell number change: measured here: cell count max response, cells fed with added oleic acid
Summary of the method: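 Drosophila S3 cells got compounds at several concentrations plus oleic acid (400 uM solution). Laser-scanning cytometry with 488 nm excitation read lipid droplets at 500-530 nm and cells at 575-640 nm. Percent activity was relative to 20 uM Triacsin C.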

[1] = measured here: lipid fluorescence (Fed channel) AC50, cells fed with added oleic acid
[2] = measured here: cell number channel AC50, cells fed with added oleic acid

Compound	cell number change [%]	AC50 [1]	AC50 [2]
FC(F)Oc1ccccc1C1CC(c2ccc(Br)s2)Nc2ncnn21 (stereo not given)	-11.4	29.1 µM [rising, partial curve, poor fit]	–
O=C(NC(=S)Nc1nc(-c2ccc([N+](=O)[O-])cc2)cs1)c1ccco1	-8.28	0.92 µM [falling, partial curve, poor fit]	–
COc1cc(NS(=O)(=O)c2ccc(NC(=S)NC(=O)COc3ccccc3OC)cc2)nc(OC)n1	-42.1	6.51 µM [falling, partial curve]	3.66 µM [falling, partial curve]
CN(C(=O)COC(=O)C(C)(C)Oc1ccc(Cl)cc1)c1c(N)n(Cc2ccccc2)c(=O)[nH]c1=O	-35.6	29.1 µM [falling, single point]	29.1 µM [falling, single point]
COc1cccc(C(C)NC(=O)Nc2cccc(C(F)(F)F)c2)c1 (stereo not given)	-27	–	–
Cc1ccc(CC2CC(=O)N(c3ccc4c(c3)OCCO4)C2=O)cc1 (stereo not given)	5.41	0.651 µM [falling, full curve, poor fit]	–
CCOC(=O)CSc1nnc(CSc2nc3sc4c(c3c(=O)[nH]2)CCC4)n1C	-1.48	3.66 µM [falling, single point]	–
COC(=O)NC(Nc1sc2c(c1C(N)=O)CCCC2)(C(=O)OC)C(F)(F)F (stereo not given)	-8.87	–	–
Cc1ccc(S(=O)(=O)N2CCC(=O)N(C(CO)Cc3ccccc3)CC2)cc1 (stereo not given)	-12.9	0.731 µM [falling, full curve, poor fit]	–
C=CCOn1c(=O)c(-c2ccc(OC)cc2)[n+]([O-])c2ccccc21	-15.3	–	–
Cc1nnc(-c2ccccc2)o1	-58.4	29.1 µM [falling, single point]	29.1 µM [falling, single point]
COc1cccc(CNS(=O)(=O)c2ccc3c(c2)C(C)(C)C(=O)N3C)c1	-7.92	–	–
NC(=O)CCn1c(C(=O)c2cc(Cl)c(N)c(Cl)c2)c2ccccc2[n+]1[O-]	1.5	–	–
COc1ccccc1N1CCN(C2CCCN(C(=O)c3ccoc3C)C2)CC1 (stereo not given)	29.7	6.51 µM [rising, single point]	–
COc1cccc(C(=O)NNC(=O)/C=C/c2ccccc2)c1	-7.51	0.651 µM [rising, single point]	–
COc1cccc(-c2noc(Cn3nc(C(=O)O)c4ccccc4c3=O)n2)c1	28.3	4.61 µM [falling, partial curve]	–
CCCNC(=S)N1CCC(NC(=O)Nc2ccc(C)cc2)CC1	21.2	0.82 µM [rising, full curve, poor fit]	–
CCOc1ccc(-c2ccc(SCC(=O)N3CCN(c4ccccc4)CC3)nn2)cc1	6.69	5.8 µM [rising, partial curve, poor fit]	–
CC(=O)Cn1ncc(N2CCOCC2)cc1=O	27.7	–	0.112 µM [rising, full curve, poor fit]

Compound	cell number change [%]	AC50 [1]	AC50 [2]
Cc1cccc(CCNC(=O)C2CCN(S(=O)(=O)c3c(C)nn(C)c3C)CC2)c1	–	6.51 µM [rising, single point]	–
O=C(CN1CCC(NC(=O)c2ccccc2F)CC1)NCc1ccc(F)cc1	–	0.13 µM [falling, full curve, poor fit]	–
CCn1ncc(C2=NOC(C(=O)Nc3c(C)n(C)n(-c4ccccc4)c3=O)C2)c1C (stereo not given)	11.3	1.46 µM [falling, full curve, poor fit]	–
COc1ccccc1/C=C/C(=O)Nc1ccc(N2CCOCC2)cc1	-15.1	29.1 µM [falling, single point]	–
CN1CCN(C2=C(Cl)C(=O)N(Cc3ccccc3)C2=O)CC1	33.1	–	4.11 µM [rising, full curve, poor fit]
Nc1c(C(=O)NCc2ccco2)sc2nc3c(cc12)C(=O)CCC3	118	8.2 µM [rising, partial curve]	8.2 µM [rising, partial curve]
COC(=O)c1ccc(N=NNc2ccccc2)cc1	4.44	1.16 µM [falling, single point]	–
CCN=C1SC(C(=O)Nc2ccc(OC)cc2)CC(=O)N1CC (stereo not given)	-4.44	0.731 µM [falling, partial curve, poor fit]	–
Cc1ccc(N(C(=O)c2ccc(S(=O)(=O)N3CCCC3)cc2)C2C=CS(=O)(=O)C2)cc1 (stereo not given)	-18.1	–	4.11 µM [falling, partial curve, poor fit]
COC(=O)C1CCN(C(=O)C2CCN(C(=O)[C@H](C)NS(=O)(=O)c3ccc(C)cc3)CC2)CC1	17.2	29.1 µM [rising, single point]	2.06 µM [rising, partial curve, poor fit]
COc1ccc(NC(=O)CN(C)C(=O)CCNS(=O)(=O)c2ccc(Br)cc2)cc1	34.6	–	–
COc1ccccc1OCC(=O)NCc1cccs1	30.2	–	29.1 µM [rising, single point]
Cc1ccc(NC(=O)COC(=O)CCc2c(C)nc3nc(N)nn3c2C)cc1C	5.36	0.366 µM [rising, full curve]	–
O=C(NC1CCCC1)c1cc(-c2ccc(Cl)cc2Cl)on1	11.5	5.17 µM [falling, single point]	–
CCNc1cc(O)ccc1C	-21.2	23.1 µM [rising, partial curve, poor fit]	1.16 µM [falling, single point]
O=C(COC(=O)Cn1cnc2ccccc2c1=O)NCc1ccccc1	-0.0343	13 µM [falling, partial curve, poor fit]	–
COc1cccc(NC(=O)CNC(=O)c2ccccc2)c1	1.24	6.51 µM [falling, single point]	6.51 µM [falling, single point]
COc1ccccc1OCC(=O)NNC(=O)CSC(=S)N1CCCC1	12.7	0.517 µM [rising, partial curve, poor fit]	–
CCOC(=O)c1c(N)nn(C(=O)C(C)C)c1-c1ccc(OC)cc1	51.7	0.366 µM [rising, full curve]	0.206 µM [rising, full curve]

Just AC50 [1] and cell number change [%], for 5 of the compounds above:

| Compound | AC50 [1] | cell number change [%] |
| --- | --- | --- |
| COC(=O)C1CCN(C(=O)C2CCN(C(=O)[C@H](C)NS(=O)(=O)c3ccc(C)cc3)CC2)CC1 | 29.1 µM [rising, single point] | 17.2 |
| COc1ccc(NC(=O)CN(C)C(=O)CCNS(=O)(=O)c2ccc(Br)cc2)cc1 | – | 34.6 |
| COc1ccccc1OCC(=O)NCc1cccs1 | – | 30.2 |
| Cc1ccc(NC(=O)COC(=O)CCc2c(C)nc3nc(N)nn3c2C)cc1C | 0.366 µM [rising, full curve] | 5.36 |
| O=C(NC1CCCC1)c1cc(-c2ccc(Cl)cc2Cl)on1 | 5.17 µM [falling, single point] | 11.5 |

Continued:

Compound	cell number change [%]	AC50 [1]	AC50 [2]
Cc1[nH]c2ccc(C(=O)N3CCN(c4ccccc4Cl)CC3)cc2c1C	34	0.58 µM [rising, single point]	–
CCn1c(N2CCN(C(=S)NCC(C)C)CC2)nc2ccccc21	-145	6.51 µM [falling, full curve]	5.17 µM [falling, full curve]
COc1ccc(NC(=O)C2CCN(C(=O)C3CC(=O)N(c4ccc(C)cc4)C3)CC2)cc1 (stereo not given)	18.1	14.6 µM [rising, partial curve]	–
COC(=O)c1cccc(CSc2nc3ccccc3[nH]2)c1	7.38	2.06 µM [rising, full curve, poor fit]	–
CC(OC(=O)CCCC(=O)Nc1ccc(F)cc1)C(=O)c1ccccc1 (stereo not given)	11.5	–	–
Cc1nn(Cc2ccc(C(=O)N3CCOCC3)o2)c(C)c1Br	6.7	6.51 µM [rising, single point]	6.51 µM [rising, single point]
COc1ccc(/C=C/C(=O)OCC(=O)N2CCCCCC2)c(OC)c1	-7.35	–	3.26 µM [rising, single point]
CC(C)CCNC(=O)c1cc2c(s1)-c1ccccc1S(=O)(=O)C2	21.7	0.116 µM [rising, full curve, poor fit]	–
CCc1cccc(NC(=O)CCc2nc3sc4c(c3c(=O)[nH]2)CCCC4)c1	75.1	–	14.6 µM [rising, partial curve]
COc1ccc(NC(=O)c2scc(S(=O)(=O)C(C)C)c2N)cc1	-12.6	0.651 µM [falling, single point]	–
CCC(C)(C)C1CCC2(CC1)NC(=O)N(CC(=O)N1CCN(C(=O)c3ccco3)CC1)C2=O (stereo not given)	–	23.1 µM [rising, single point]	–
c1ccc(COc2ccc(OCCCn3cncn3)cc2)cc1	-39.5	1.64 µM [rising, partial curve, poor fit]	16.4 µM [falling, single point]
Cc1ccc(-c2ccc(/C=N\NC(=O)C3C(=O)NCC3c3ccccc3)o2)cc1Cl (stereo not given)	-112	–	20.6 µM [falling, single point]
CCCCOc1ccc(N(CC(=O)NC2CCCCC2)C(=O)c2snc(C(N)=O)c2N)cc1	8.33	–	–
COc1ccc(-c2noc(-c3ccc(Br)o3)n2)cc1OC	–	–	2.59 µM [rising, partial curve]
O=C1COc2ccc(C(=O)COC(=O)C3CC(O)CN3S(=O)(=O)c3ccc(Cl)cc3)cc2N1 (stereo not given)	35.9	1.64 µM [falling, single point]	29.1 µM [rising, single point]
COc1ccc(S(=O)(=O)N2CCN(c3cccc(C)c3C)CC2)cc1	-26.7	6.51 µM [falling, single point]	–
COc1ccc(C(C(=O)NC2CCCCC2)N(Cc2ccco2)C(=O)c2snc(C(N)=O)c2N)cc1 (stereo not given)	7.66	20.6 µM [falling, single point]	–
Cc1cc(C)c(S(=O)(=O)N2CCN=C2c2ccccc2)c(C)c1	9.2	6.51 µM [rising, partial curve, poor fit]	1.03 µM [rising, full curve]

Reference: PubChem BioAssay AID2685 (National Center for Advancing Translational Sciences (NCATS), 2010)
